According to article PMC4614683:
No constants are given. Whether binding was seen depends on the method and setting. Some results given as binding are weak or reduced against the parent protein; the word gives no strength. One block for each molecule: values may come before it.

By UniProt entry, the sequences of proteins in these tests, tags left out.
UniProt P72714: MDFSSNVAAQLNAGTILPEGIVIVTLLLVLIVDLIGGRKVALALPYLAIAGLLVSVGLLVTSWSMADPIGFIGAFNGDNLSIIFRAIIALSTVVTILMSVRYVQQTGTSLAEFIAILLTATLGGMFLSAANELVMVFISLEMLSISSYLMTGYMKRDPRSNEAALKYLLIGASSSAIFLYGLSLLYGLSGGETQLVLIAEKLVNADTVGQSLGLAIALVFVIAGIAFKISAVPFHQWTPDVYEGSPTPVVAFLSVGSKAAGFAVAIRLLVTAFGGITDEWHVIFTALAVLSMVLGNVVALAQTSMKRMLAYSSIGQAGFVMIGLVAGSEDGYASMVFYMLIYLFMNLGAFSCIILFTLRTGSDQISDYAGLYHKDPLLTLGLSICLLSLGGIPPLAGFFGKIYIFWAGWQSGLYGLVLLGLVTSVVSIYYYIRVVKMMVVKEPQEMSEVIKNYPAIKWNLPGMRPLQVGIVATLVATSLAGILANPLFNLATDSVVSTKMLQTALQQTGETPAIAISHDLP
UniProt P26522: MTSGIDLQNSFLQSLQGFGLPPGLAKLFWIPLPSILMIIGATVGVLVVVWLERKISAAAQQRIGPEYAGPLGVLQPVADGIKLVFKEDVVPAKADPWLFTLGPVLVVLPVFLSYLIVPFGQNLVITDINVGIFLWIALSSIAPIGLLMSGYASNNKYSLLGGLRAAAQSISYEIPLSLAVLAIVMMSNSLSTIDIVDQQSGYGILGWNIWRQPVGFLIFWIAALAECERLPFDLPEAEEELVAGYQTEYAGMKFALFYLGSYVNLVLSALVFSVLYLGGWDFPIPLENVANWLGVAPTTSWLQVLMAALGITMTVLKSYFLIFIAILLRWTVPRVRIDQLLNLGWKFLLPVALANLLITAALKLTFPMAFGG
UniProt P26525: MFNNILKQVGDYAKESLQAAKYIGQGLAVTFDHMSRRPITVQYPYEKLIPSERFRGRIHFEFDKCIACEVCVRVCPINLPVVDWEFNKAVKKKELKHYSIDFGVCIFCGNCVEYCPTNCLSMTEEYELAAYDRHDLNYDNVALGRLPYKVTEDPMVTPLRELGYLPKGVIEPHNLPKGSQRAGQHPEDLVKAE

Key:
Test in all cases: two-hybrid; bait, prey and reporter vector pSH18-34 (lacZ) co-transformed into yeast strain EGY48; dropped onto X-gal medium, induction plate 30 °C for 22 h; blue precipitate (β-galactosidase) as read-out; at least six independent experiments
[1] = target: NdhB (Sll0223) (Synechocystis sp. strain PCC 6803) (UniProt P72714)
[2] = target: T1, NdhO (Ssl1690) (Synechocystis sp. strain PCC 6803) (UniProt P74771)
T1 sequence: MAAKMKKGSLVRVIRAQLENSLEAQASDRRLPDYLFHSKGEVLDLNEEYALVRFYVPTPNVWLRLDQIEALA

[3] = target: T2, NdhH (Slr0261) (Synechocystis sp. strain PCC 6803) (UniProt P27724)
T2 sequence: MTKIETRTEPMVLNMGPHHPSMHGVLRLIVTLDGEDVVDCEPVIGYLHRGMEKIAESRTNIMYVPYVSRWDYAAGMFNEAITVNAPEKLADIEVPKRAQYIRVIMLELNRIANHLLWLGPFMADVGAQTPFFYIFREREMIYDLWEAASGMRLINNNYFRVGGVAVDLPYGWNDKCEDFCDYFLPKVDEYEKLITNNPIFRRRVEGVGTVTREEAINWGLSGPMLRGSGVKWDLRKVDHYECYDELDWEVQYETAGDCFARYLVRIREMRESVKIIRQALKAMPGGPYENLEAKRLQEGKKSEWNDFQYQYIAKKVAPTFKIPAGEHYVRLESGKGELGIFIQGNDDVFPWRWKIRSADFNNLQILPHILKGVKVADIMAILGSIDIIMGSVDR

binding [1]: binds
Molecule: NdhA (Sll0519) (from UniProt P26522 1-372)

binding [2]: binds
Molecule: NdhI (Sll0520) (from UniProt P26525 1-193)

binding [3]: binds
B1: NdhK (Slr1280) (protein, UniProt P19050 1-248)
chain: MSPNPANPTDLERVATAKILNPASRSQVTQDLSENVILTTVDDLYNWAKLSSLWPLLYGTACCFIEFAALIGSRFDFDRFGLVPRSSPRQADLIITAGTITMKMAPALVRLYEEMPEPKYVIAMGACTITGGMFSSDSTTAVRGVDKLIPVDVYIPGCPPRPEAIFDAIIKLRKKVANESIQERAITQQTHRYYSTSHQMKVVAPILDGKYLQQGTRSAPPRELQEAMGMPVPPALTTSQQKEQLNRG
